PubChem BioAssay AID1259254 – NCATS, 2017
The deposit covers about 59,000 reagents; below is a random part of them. Over the whole deposit, about 1,550 (2.6%) are marked active. 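G2 share is only a proxy for re-replication; each gene was hit by three separate siRNAs, and active genes were retested.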 Entries without a mark were called inactive. The numbers tell different reagents against one gene apart. Not all columns of the deposit are shown. Reagent sequences are not shown. Not given: the amount of reagent.

Screen: 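Finding genes that stop cells copying their DNA twice in one cycle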 (primary screen)
Cells: human HCT116 colorectal cancer cells
Reagent: single siRNA against human genes
Duration: 3 days
Read-out: 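Imaged Hoechst DNA stain sorts each cell into a cycle phase by DNA amount; per plate, G2 fraction set to 0% for non-targeting and 100% for GMNN siRNA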
Direction: G2 robust z-score and G2 cells, % of GMNN control: higher = more G2 cells, more excess DNA replication
Active means: 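An siRNA counts as active if its G2 robust z-score lies at least 5 MADs above the screen median; here such calls match roughly 38% of GMNN control or more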

ACAN (GeneID 176) #1
- G2 robust z-score: -0.954
- G2 cells, % of GMNN control: -3.74

ACAN (GeneID 176) #2
- G2 robust z-score: -0.731
- G2 cells, % of GMNN control: -2.18

ACAN (GeneID 176) #3
- G2 robust z-score: 0.275
- G2 cells, % of GMNN control: 4.9

CDIP1 (GeneID 29965) #1
- G2 robust z-score: 0.898
- G2 cells, % of GMNN control: 9.28

CDIP1 (GeneID 29965) #2
- G2 robust z-score: 2.01
- G2 cells, % of GMNN control: 17.1

CDIP1 (GeneID 29965) #3
- G2 robust z-score: 1.38
- G2 cells, % of GMNN control: 12.6

CD33 (GeneID 945) #1
- G2 robust z-score: 4.18
- G2 cells, % of GMNN control: 32.4

CD33 (GeneID 945) #2
- G2 robust z-score: -0.587
- G2 cells, % of GMNN control: -1.16

CD33 (GeneID 945) #3
- G2 robust z-score: 0.949
- G2 cells, % of GMNN control: 9.64

LINC00290 (GeneID 728081) #1
- G2 robust z-score: -0.991
- G2 cells, % of GMNN control: -4.01

LINC00290 (GeneID 728081) #2
- G2 robust z-score: -1.31
- G2 cells, % of GMNN control: -6.26

LINC00290 (GeneID 728081) #3
- G2 robust z-score: -0.26
- G2 cells, % of GMNN control: 1.14

PIK3C3 (GeneID 5289) #1
- G2 robust z-score: -0.371
- G2 cells, % of GMNN control: 0.357

PIK3C3 (GeneID 5289) #2
- G2 robust z-score: 1.73
- G2 cells, % of GMNN control: 15.1

PIK3C3 (GeneID 5289) #3
- G2 robust z-score: -0.05
- G2 cells, % of GMNN control: 2.62

SPAG5 (GeneID 10615) #1
- G2 robust z-score: -0.446
- G2 cells, % of GMNN control: -0.17

SPAG5 (GeneID 10615) #2
- G2 robust z-score: -0.347
- G2 cells, % of GMNN control: 0.529

SPAG5 (GeneID 10615) #3
- G2 robust z-score: -0.197
- G2 cells, % of GMNN control: 1.58

4 of these entries, reformatted:
CDIP1 (GeneID 29965) #1 | G2 robust z-score = 0.898; G2 cells, % of GMNN control = 9.28
CDIP1 (GeneID 29965) #2 | G2 robust z-score = 2.01; G2 cells, % of GMNN control = 17.1
CDIP1 (GeneID 29965) #3 | G2 robust z-score = 1.38; G2 cells, % of GMNN control = 12.6
CD33 (GeneID 945) #1 | G2 robust z-score = 4.18; G2 cells, % of GMNN control = 32.4

Continued.
CARD19 (GeneID 84270) #1
- G2 robust z-score: 0.216
- G2 cells, % of GMNN control: 4.48

CARD19 (GeneID 84270) #2
- G2 robust z-score: -1.01
- G2 cells, % of GMNN control: -4.16

CARD19 (GeneID 84270) #3
- G2 robust z-score: -0.791
- G2 cells, % of GMNN control: -2.6

HES7 (GeneID 84667) #1
- G2 robust z-score: -0.086
- G2 cells, % of GMNN control: 2.36

HES7 (GeneID 84667) #2
- G2 robust z-score: 3.09
- G2 cells, % of GMNN control: 24.7

HES7 (GeneID 84667) #3
- G2 robust z-score: -0.777
- G2 cells, % of GMNN control: -2.5

ZC3H12B (GeneID 340554) #1
- G2 robust z-score: -0.486
- G2 cells, % of GMNN control: -0.449

ZC3H12B (GeneID 340554) #2
- G2 robust z-score: -0.705
- G2 cells, % of GMNN control: -1.99

ZC3H12B (GeneID 340554) #3
- G2 robust z-score: 0.103
- G2 cells, % of GMNN control: 3.69

CHCHD7 (GeneID 79145) #1
- G2 robust z-score: 0.413
- G2 cells, % of GMNN control: 5.87

CHCHD7 (GeneID 79145) #2
- G2 robust z-score: -0.144
- G2 cells, % of GMNN control: 1.95

CHCHD7 (GeneID 79145) #3
- G2 robust z-score: -0.0285
- G2 cells, % of GMNN control: 2.77
